The target in this test is T1, ADNP (in HEK293T cells, partner of the β-catenin fragments) (UniProt Q9Z103).
T1 sequence: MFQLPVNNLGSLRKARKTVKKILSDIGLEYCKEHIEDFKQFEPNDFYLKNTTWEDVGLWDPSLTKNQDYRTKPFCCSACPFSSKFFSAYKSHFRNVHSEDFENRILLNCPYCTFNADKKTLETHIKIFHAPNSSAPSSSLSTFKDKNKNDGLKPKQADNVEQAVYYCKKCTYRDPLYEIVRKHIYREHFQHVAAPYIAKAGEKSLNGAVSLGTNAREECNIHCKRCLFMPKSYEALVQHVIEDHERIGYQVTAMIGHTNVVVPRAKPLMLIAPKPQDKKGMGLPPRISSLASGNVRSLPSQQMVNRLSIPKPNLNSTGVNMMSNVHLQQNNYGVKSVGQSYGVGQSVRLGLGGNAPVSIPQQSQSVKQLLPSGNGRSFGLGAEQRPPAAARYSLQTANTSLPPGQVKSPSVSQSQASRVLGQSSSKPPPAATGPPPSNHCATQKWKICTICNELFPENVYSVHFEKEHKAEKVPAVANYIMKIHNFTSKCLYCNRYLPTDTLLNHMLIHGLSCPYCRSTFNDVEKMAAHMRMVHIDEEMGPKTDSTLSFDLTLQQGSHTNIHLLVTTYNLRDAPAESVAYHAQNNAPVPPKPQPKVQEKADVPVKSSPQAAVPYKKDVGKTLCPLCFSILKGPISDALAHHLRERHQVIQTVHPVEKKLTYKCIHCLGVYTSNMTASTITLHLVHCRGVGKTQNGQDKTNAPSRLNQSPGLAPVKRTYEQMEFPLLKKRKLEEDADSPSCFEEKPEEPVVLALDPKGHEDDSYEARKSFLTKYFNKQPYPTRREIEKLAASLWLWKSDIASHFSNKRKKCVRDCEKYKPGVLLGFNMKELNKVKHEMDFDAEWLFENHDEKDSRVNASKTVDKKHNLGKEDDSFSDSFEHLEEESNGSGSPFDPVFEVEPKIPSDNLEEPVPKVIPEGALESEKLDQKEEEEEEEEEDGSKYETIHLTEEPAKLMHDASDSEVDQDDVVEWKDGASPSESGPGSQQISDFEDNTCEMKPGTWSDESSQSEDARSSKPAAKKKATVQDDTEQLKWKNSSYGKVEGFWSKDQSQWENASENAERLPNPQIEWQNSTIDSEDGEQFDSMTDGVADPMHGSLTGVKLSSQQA
As to the kind of experiment: co-IP; plasmids co-transfected into HEK293T cells; lysates, Dynabeads Protein G with anti-FLAG, anti-HA or anti-MYC antibody, overnight 4 °C, washes PBS 0.1% Tween.

Results are given in words; binding and its absence hold for the method and conditions named. In cells and extracts the contact can be indirect. A result given as binding can be weak or reduced; the word gives no strength.

With “β-catenin Arm2 fragment (armadillo repeats 5–12) (domain or fragment)”, the binding entry is reported as “binds”. In the case of “β-catenin Arm1 fragment (armadillo repeats 1–4) (domain or fragment)” it was “binds”.

Source of the values: PMC7293280.
